Results as given in patent US12677832B2, “Oxadiazole compounds for controlling or preventing phytopathogenic fungi” (PI INDUSTRIES LTD., priority 2019, dated 2026).
Some results were stated once for a whole list of compounds, not compound by compound.

System: Septoria lycopersici/Corynespora cassicola (CORYCA)
Assay: Septoria lycopersici/Corynespora cassicola (Leaf Spot of Tomato) radial growth on potato dextrose agar
Format: cell-based
Details: 300 ppm; radial growth after seven days compared to untreated control

Compound | control
Cc1nnc(SCC(=O)c2ccc(-c3noc(C(F)(F)F)n3)cc2)o1 [Compound 150, 2-((5-methyl-1,3,4-oxadiazol-2-yl)thio)-1-(4-(5-(trifluoromethyl)-1,2,4-oxadiazol-3-yl)phenyl)ethan-1-one] | ≥ 70%
O=C(CSc1ccncc1)c1ccc(-c2noc(C(F)(F)F)n2)cc1 [Compound 68, 2-(pyridin-4-ylthio)-1-(4-(5-(trifluoromethyl)-1,2,4-oxadiazol-3-yl)phenyl)ethan-1-one] | ≥ 70%
